Assay [1] deals with Flag-tagged Fem1b (UniProt Q9Z2G0). The experiment in a line: affinity purification with mass spectrometry; Flag-Fem1b stably expressed in HEK293T cells; lysate in IP buffer immunoprecipitated with anti-Flag affinity gel; eluate resolved by SDS-PAGE, trypsin digest, LC-MS.
Assay [2] shares this target. The experiment in a line: affinity purification with mass spectrometry; Flag-Fem1b stably expressed in skeletal cells; lysate in IP buffer immunoprecipitated with anti-Flag affinity gel; eluate resolved by SDS-PAGE, trypsin digest, LC-MS.

By UniProt entry, the sequences of proteins in these tests, tags left out.
UniProt Q9Z2G0: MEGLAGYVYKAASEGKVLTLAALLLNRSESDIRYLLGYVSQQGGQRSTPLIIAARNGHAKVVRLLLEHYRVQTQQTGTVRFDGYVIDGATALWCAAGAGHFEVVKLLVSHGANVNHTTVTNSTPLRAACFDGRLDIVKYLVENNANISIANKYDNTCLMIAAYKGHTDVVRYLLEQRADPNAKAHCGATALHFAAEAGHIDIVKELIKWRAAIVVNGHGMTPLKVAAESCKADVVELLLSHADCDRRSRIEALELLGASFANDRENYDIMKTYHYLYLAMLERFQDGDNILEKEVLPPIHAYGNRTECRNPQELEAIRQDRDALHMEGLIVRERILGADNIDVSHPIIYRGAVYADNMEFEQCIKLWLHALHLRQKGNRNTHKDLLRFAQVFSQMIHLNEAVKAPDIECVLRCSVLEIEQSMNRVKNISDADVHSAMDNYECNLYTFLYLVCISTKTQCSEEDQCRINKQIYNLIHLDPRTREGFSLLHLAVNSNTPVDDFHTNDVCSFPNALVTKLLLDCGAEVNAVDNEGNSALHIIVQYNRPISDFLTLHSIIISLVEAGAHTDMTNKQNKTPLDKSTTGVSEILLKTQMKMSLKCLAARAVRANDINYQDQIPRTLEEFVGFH
UniProt P08151: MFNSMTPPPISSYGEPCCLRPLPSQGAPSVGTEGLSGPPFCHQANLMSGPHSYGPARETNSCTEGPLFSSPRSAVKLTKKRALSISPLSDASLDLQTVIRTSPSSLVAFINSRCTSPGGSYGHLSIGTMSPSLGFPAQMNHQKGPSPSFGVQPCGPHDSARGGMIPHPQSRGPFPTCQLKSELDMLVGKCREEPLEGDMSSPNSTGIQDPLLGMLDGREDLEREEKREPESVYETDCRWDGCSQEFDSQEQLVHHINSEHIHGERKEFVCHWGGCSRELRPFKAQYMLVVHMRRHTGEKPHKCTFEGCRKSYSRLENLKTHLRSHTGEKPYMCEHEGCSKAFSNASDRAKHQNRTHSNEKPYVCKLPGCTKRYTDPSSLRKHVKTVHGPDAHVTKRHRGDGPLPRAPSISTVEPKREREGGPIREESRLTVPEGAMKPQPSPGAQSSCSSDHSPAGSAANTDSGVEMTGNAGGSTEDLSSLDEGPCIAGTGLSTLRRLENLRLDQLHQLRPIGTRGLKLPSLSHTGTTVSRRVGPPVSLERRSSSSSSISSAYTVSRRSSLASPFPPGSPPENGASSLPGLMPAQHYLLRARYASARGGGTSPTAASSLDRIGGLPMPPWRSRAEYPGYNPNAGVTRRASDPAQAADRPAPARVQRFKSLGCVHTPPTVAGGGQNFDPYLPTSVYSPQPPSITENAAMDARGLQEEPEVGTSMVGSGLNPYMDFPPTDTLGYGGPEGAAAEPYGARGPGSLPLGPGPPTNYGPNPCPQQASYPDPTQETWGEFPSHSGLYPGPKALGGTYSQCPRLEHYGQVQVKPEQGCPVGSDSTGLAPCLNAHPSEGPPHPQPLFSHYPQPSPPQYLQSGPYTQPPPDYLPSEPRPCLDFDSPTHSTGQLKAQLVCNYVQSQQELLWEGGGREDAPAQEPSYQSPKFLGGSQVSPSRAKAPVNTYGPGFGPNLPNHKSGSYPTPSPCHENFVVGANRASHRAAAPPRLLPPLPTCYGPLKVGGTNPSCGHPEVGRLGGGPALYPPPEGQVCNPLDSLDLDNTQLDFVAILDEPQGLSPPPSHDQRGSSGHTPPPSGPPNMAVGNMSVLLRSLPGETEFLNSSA
UniProt P47806: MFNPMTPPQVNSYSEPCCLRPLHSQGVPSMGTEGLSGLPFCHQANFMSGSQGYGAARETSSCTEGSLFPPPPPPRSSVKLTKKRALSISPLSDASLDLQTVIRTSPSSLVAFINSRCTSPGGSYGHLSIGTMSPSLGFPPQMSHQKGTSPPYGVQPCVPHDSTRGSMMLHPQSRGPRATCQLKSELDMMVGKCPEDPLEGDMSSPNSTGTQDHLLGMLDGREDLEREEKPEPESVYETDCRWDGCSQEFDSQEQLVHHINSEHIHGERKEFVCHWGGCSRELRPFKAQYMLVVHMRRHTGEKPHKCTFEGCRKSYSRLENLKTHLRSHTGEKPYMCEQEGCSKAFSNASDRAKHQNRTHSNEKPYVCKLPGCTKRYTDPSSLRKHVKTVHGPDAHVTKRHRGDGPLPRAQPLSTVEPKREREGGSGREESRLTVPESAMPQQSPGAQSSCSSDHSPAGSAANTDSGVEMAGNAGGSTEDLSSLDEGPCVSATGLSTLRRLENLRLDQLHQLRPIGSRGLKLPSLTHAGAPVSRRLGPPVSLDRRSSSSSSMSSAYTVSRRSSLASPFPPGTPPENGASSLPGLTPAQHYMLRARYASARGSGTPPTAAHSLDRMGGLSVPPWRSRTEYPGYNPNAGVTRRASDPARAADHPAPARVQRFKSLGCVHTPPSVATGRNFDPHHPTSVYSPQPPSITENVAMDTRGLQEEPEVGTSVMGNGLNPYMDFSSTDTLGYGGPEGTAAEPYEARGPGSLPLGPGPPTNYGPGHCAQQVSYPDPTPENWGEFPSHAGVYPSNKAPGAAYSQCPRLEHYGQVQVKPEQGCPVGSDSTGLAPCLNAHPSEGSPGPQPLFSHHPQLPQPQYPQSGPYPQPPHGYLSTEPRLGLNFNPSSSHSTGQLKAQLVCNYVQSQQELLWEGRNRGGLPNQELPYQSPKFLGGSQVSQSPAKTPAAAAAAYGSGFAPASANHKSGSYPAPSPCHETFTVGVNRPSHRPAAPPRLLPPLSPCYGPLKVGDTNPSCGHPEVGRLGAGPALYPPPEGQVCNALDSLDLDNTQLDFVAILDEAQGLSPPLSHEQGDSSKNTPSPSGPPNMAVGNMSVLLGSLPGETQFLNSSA
UniProt P35579: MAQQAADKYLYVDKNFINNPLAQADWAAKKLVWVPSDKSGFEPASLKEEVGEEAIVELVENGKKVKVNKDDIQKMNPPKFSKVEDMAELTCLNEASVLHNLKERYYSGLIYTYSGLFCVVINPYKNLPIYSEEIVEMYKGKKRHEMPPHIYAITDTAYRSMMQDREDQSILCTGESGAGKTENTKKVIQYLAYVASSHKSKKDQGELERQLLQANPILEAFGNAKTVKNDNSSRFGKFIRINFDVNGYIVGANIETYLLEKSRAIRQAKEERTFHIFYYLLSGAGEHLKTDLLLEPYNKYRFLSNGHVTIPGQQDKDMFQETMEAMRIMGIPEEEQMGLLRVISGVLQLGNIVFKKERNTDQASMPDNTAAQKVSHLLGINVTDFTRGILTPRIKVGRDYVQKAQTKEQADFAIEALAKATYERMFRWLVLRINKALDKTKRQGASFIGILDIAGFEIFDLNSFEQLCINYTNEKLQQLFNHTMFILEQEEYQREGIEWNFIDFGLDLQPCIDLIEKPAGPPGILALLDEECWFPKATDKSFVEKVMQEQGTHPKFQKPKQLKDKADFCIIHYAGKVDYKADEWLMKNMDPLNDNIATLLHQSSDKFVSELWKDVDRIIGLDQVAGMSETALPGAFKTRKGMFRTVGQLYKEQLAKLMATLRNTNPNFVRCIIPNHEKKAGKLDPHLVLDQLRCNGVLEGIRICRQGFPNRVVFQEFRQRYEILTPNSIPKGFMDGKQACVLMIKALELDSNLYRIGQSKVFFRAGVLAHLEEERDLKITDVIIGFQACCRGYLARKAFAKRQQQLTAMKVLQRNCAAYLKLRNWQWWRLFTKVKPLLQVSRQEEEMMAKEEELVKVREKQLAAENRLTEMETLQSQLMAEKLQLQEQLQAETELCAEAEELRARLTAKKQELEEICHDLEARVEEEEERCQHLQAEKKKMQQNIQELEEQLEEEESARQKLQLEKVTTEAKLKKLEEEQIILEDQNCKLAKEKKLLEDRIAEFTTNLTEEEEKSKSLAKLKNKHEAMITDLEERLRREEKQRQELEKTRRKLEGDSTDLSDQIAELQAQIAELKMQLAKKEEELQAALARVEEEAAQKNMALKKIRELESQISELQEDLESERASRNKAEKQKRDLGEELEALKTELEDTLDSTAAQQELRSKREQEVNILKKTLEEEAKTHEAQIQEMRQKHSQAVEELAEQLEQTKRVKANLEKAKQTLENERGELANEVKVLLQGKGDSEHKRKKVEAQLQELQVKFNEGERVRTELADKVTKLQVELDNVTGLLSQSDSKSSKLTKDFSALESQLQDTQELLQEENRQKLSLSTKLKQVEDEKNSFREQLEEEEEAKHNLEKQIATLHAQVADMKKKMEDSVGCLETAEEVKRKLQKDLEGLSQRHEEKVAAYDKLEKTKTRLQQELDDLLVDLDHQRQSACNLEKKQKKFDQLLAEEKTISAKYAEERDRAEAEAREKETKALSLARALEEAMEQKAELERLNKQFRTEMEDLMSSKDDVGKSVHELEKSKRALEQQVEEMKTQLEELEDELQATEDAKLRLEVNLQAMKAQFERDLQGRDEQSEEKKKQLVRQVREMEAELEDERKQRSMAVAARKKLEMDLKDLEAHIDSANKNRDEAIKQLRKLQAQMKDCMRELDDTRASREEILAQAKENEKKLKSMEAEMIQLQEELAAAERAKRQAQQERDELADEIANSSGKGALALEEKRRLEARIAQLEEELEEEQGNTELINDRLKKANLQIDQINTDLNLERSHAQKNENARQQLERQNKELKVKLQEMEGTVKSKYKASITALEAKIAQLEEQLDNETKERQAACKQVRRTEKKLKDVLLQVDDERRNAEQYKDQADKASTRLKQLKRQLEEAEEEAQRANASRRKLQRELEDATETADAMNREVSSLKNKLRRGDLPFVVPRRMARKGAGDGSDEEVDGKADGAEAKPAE
UniProt Q8N165: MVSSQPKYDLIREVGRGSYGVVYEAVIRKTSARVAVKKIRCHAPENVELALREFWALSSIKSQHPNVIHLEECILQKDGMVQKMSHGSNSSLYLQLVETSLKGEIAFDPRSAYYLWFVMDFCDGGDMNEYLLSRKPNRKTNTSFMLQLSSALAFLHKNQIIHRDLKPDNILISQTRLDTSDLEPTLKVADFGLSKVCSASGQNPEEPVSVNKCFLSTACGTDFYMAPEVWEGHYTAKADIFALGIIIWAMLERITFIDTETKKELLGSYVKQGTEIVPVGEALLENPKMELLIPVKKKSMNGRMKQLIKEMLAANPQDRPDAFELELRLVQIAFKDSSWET

Four substances from article PMC12000498 can be followed below.

These are yes or no findings as the source states them, for the method shown. Binding seen in cells or lysates may run through a third protein. These calls come from enrichment with a bait or labelling near it, and not all partners need be listed.

Consider “Gli1 (293T cells) (from UniProt P08151 1-1106)”, for which the binding result with Flag-tagged Fem1b [1] is “binds”.

For “Gli1 (skeletal cells) (from UniProt P47806 1-1111)”, the binding entry with Flag-tagged Fem1b [2] is recorded as “binds”.

In the case of “Myh9 (293T cells) (from UniProt P35579 1-1960)”, in the assay with Flag-tagged Fem1b [1], the binding entry is listed as “binds”.

Consider “Pdik1l (293T cells) (from UniProt Q8N165 1-341)”, for which the binding result in the assay with Flag-tagged Fem1b [1] was “binds”.
